Source: US8927579B2, “Male contraceptive” (priority 2007, dated 2015)
Counter-ions that a name gives are not always drawn. Some of these results come from one statement about several compounds together.

Key:
[1] = system: circular muscle of human vas deferens; test: Inhibition at fixed concentration of contractions evoked by high K+ in the presence of FPL 64176, circular muscle; settings: [K+]o 30 mM in the presence of FPL 64176 (1.0 μM); drug 10 μM; hydrochloride
Procedure: (§1) Human vas deferens specimens were obtained after elective vasectomies of healthy fertile men. College ethical approval and the consent of patients were obtained. The specimens were placed in ice-cold Krebs' medium, dissected-free of connective tissue/blood vessels and cut longitudinally into strips (longitudinal muscle preparations; 5-10 mm long & 1 mm wide) or transversely into rings (circular muscle preparations; 3 mm in length). […] Contractile responses were recorded via a Harvard-type force-displacement transducer. […]
(§2) Tissues were equilibrated for 180 min in Krebs' medium containing inhibitors of extraneuronal and neuronal reuptake of noradrenaline, oestradiol (1 μM) and desipramine (0.1 μM) respectively, inhibitors of catechol-O-methyltransferase and monoamine oxidase, tropolone (10 μM) and iproniazid (10 μM) respectively and the β-adrenoceptor blocker, propranolol (1 μM). […] The resulting contractions were measured (see below) and expressed as a percentage of corresponding initial responses to high [K^+]o evoked in the presence of L-type Ca^2+ agonists (i.e. before exposure to L-type Ca^2+ antagonists). […]

[2] = system: longitudinal muscle of human vas deferens; test: Inhibition at fixed concentration of contractions evoked by high K+ in the presence of FPL 64176, longitudinal muscle; settings: [K+]o 30 mM in the presence of FPL 64176 (1.0 μM); drug 10 μM
Procedure: as §1, §2

## CC(NCCC(c1ccccc1)c1ccccc1)c1ccccc1 (centres unmarked) [Fendiline, fendiline hydrochloride]
[1]
  inhibition of circular muscle contractions compared to time-matched controls: 35-38%
[2]
  inhibition of longitudinal muscle contractions compared to time-matched controls: 77-82%
